For one molecule, binding results are on record in patent US20170355781A1 (CCAM BIOTHERAPEUTICS, published 2017).

The target in test [1] is T1, recombinant purified human CEACAM1 (human, UniProt P13688 35-428, limits assumed).
T1 construct: also called purified hCEACAM1; Recombinant CEACAM1
T1 sequence (looked up): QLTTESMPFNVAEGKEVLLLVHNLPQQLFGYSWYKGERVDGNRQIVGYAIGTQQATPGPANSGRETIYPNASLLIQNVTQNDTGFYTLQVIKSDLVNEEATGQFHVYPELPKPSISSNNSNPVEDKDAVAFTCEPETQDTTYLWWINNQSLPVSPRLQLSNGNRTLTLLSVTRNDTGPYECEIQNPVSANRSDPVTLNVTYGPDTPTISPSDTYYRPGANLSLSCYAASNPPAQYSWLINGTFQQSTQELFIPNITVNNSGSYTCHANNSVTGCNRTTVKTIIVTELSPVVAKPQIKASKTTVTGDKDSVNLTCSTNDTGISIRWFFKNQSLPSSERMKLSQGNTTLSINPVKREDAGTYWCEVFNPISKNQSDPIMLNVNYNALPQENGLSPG
The experiment in a line: indirect ELISA on purified human CEACAM1. On the technique in general: An ELISA detects its analyte on a solid surface through an enzyme-linked reagent.

Test [2] addresses T1, recombinant purified human CEACAM1. The experiment in a line: indirect ELISA on plate-bound purified human CEACAM1, double dilutions of CM10. The procedure:
The binding specificity of CM10 to human CEACAM1 was tested in ELISA assay using purified human CEACAM1. Indirect ELISA using 23 double dilutions of CM10 were used to generate specific binding curve. The results shown in FIG. 2 represent average O.D. from triplicate±SE. Similar results were obtain from other ten independent experiments.

These are yes or no findings as the source states them, for the method shown. Some entries that bind do so weakly or less than the wild type.

B1: chimeric monoclonal antibody CM10 (antibody, human IgG1, kappa, V domains shown)
VH: QVQLQQSGAELVRPGTSVKVSCKASGYAFTNNLIEWVKQRPGQGLEWIGVINPGSGDTNYNEKFKGKATLTADKSSNTAYMQLSSLTSDDSAVYFCARGDYYGGFAVDYWGQGTSVTVSS
VL: DIQMTQTTSSLSASLGDRVTISCRTSQDIGNYLNWYQQKPDGTVKLLIYYTSRLHSGVPSRFSGSGSGTDYSLTISNLEQEDIATYFCQQGKSLPRTFGGGTKLEIKR
notes: made in CHO cells; PE-conjugated CM10 was used for the QuantiBRITE count; also called CM10.S91; anti CEACAM1 mAb, CM10
Turning to B1, the binding result in test [1] and in test [2] was “binds” in each case.
